PubChem BioAssay AID1259281, Sanger Institute – 2017
In all, the deposit lists 794 reagents; shown is a part drawn at random. 22 of them (2.8%) were called active. 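Calls rest on knock-down alone only; drug synergy scores play no part in them.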 Unmarked entries are inactive. No viability above 1 is reported: the scale is capped. Not all columns of the deposit are shown. No sequences are given here. Not stated in the record: the amount of reagent, the time to read-out.

Purpose: 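Find knock-downs that kill colorectal cancer cells alone or strengthen targeted drugs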 (primary screen)
Cells: human COLO678 colorectal cancer cell line
Knock-down reagent: siRNA pool against human genes
Challenge: anchor drugs at fixed doses: BYL719 1 µM, cetuximab 5 µg/ml or trametinib 10 nM; DMSO vehicle for the siRNA-alone arm
Read-out: 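Cell viability compared with non-targeting pool wells, averaged over replicates; knock-down-alone effect also as robust z-score; synergy scores set knock-down plus drug against expected joint effect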
Reading the numbers: robust z-score, siRNA alone: higher = more viable cells; strongly negative means essential; viability, siRNA alone: higher = more surviving cells; synergy score with BYL719 and synergy score with trametinib: higher = stronger synergistic killing with drug
Active means: 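Called essential (knock-down alone) if knock-down by itself drops cell number to a robust z-score under -3; all others no change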
Calls: active = essential (knock-down alone); inactive = no change

gene knocked down	robust z-score, siRNA alone	viability, siRNA alone (fraction of control)	synergy score with BYL719	synergy score with trametinib
PDXK (GeneID 8566)	0.473	1	0.0298	0.0611
MAP2K5 (GeneID 5607)	0.473	1	0.0422	0.0308
EPHB4 (GeneID 2050)	-2.5	0.906	-0.0519	-0.0446
CLSPN (GeneID 63967)	0.473	1	0.0284	0.267
WEE1 (GeneID 7465)	-1.05	0.952	0	0.05
CTNNB1 (GeneID 1499)	-3.95 (active)	0.86	-0.144	-0.0632
PIP4K2A (GeneID 5305)	0.473	1	-0.0882	0.103
GCK (GeneID 2645)	0.473	1	-0.0316	0.0723
PKN2 (GeneID 5586)	-1.58	0.935	-0.107	0.0537
NRK (GeneID 203447)	0.473	1	0.0106	-0.0143
MAP4K5 (GeneID 11183)	0.473	1	0.201	0.033
MAP3K21 (GeneID 84451)	0.473	1	0.0407	0.0418
PANK3 (GeneID 79646)	0.473	1	0.0797	0.0272
RIOK3 (GeneID 8780)	0.473	1	-0.0919	0.0823
TP53 (GeneID 7157)	-1.17	0.948	-0.078	-0.0195
ASPM (GeneID 259266)	-2.35	0.91	-0.152	-0.0379
SGK2 (GeneID 10110)	-0.326	0.975	-0.056	-0.0556
ULK4 (GeneID 54986)	-0.0328	0.984	0.101	0.114
TTK (GeneID 7272)	0.473	1	-0.0755	0.0366
CDK10 (GeneID 8558)	-1.34	0.943	-0.125	0.0414
CSNK1G2 (GeneID 1455)	0.473	1	0.00308	0.0202
MAP2K1 (GeneID 5604)	-0.763	0.961	-0.119	-0.105
MPP1 (GeneID 4354)	0.473	1	-0.0919	-0.00905
CDK16 (GeneID 5127)	-0.201	0.979	0.0562	0.00242
DGKB (GeneID 1607)	-6.43 (active)	0.781	-0.0209	-0.0114
PIK3CD (GeneID 5293)	-3.22 (active)	0.883	-0.106	-0.0606
BRDT (GeneID 676)	0.473	1	0.0105	0.0699
EPHA7 (GeneID 2045)	0.473	1	0.0344	0.023
EFNA5 (GeneID 1946)	0.473	1	-0.0919	0.0378
BUB1 (GeneID 699)	-1.86	0.926	-0.136	-0.000639
CSNK1D (GeneID 1453)	-0.799	0.96	-0.0253	0.0449
DYRK4 (GeneID 8798)	-0.515	0.969	-0.0148	-0.0531
DCLK2 (GeneID 166614)	-0.465	0.97	0.103	0.0487
TEK (GeneID 7010)	0.473	1	-0.0919	-0.0074
ALDH18A1 (GeneID 5832)	0.473	1	0.0829	0.0999
CDK6 (GeneID 1021)	-0.4	0.972	0.112	0.0259
MVK (GeneID 4598)	0.466	1	-0.0193	-0.00902
MARK4 (GeneID 57787)	0.25	0.993	0.00303	0.0444
NME4 (GeneID 4833)	0.473	1	-0.00547	0.0409
EPHB3 (GeneID 2049)	-0.811	0.959	-0.081	0.0453
PRKAA1 (GeneID 5562)	0.473	1	0.0394	-0.026
ADGRL2 (GeneID 23266)	0.473	1	-0.0795	0.098
MAP3K12 (GeneID 7786)	0.473	1	0.0154	-0.0352
FGFR3 (GeneID 2261)	0.358	0.996	-0.0722	0.00134
CDC42BPG (GeneID 55561)	0.473	1	-0.0919	-0.0418
PRKAR1A (GeneID 5573)	0.473	1	-0.0281	-0.049
SBK1 (GeneID 388228)	0.473	1	-0.0919	-0.0138
BRD3 (GeneID 8019)	0.473	1	-0.00681	-0.0742
NAGK (GeneID 55577)	0.473	1	0.0672	-0.0218
ADCK1 (GeneID 57143)	0.473	1	-0.0273	-0.00984

7 of these entries, reformatted:
gene knocked down,"robust z-score, siRNA alone","viability, siRNA alone (fraction of control)",synergy score with BYL719,synergy score with trametinib
PKN2 (GeneID 5586),-1.58,0.935,-0.107,0.0537
NRK (GeneID 203447),0.473,1,0.0106,-0.0143
MAP4K5 (GeneID 11183),0.473,1,0.201,0.033
MAP3K21 (GeneID 84451),0.473,1,0.0407,0.0418
PANK3 (GeneID 79646),0.473,1,0.0797,0.0272
RIOK3 (GeneID 8780),0.473,1,-0.0919,0.0823
TP53 (GeneID 7157),-1.17,0.948,-0.078,-0.0195
